Reference: US11912716B2 (priority 2018, dated 2024)

System: morphine-dependent animals
Experiment: naloxone-precipitated morphine-withdrawal jumping (Example 10)
Assay type: in vivo, Kunming mice
Details: methadone 20 mg/kg intragastric, 1 hour before naloxone

CCC(=O)C(CC(C)N(C)C)(c1ccccc1)c1ccccc1 (stereo not shown) [methadone, reference compound]
% Inhibition of morphine-withdrawal jumping: 46.1 ± 5.2%
